Our source for the binding values is PMC10070108.

The chains behind the UniProt entries cited, without tags or fusion partners.
UniProt E9Q557: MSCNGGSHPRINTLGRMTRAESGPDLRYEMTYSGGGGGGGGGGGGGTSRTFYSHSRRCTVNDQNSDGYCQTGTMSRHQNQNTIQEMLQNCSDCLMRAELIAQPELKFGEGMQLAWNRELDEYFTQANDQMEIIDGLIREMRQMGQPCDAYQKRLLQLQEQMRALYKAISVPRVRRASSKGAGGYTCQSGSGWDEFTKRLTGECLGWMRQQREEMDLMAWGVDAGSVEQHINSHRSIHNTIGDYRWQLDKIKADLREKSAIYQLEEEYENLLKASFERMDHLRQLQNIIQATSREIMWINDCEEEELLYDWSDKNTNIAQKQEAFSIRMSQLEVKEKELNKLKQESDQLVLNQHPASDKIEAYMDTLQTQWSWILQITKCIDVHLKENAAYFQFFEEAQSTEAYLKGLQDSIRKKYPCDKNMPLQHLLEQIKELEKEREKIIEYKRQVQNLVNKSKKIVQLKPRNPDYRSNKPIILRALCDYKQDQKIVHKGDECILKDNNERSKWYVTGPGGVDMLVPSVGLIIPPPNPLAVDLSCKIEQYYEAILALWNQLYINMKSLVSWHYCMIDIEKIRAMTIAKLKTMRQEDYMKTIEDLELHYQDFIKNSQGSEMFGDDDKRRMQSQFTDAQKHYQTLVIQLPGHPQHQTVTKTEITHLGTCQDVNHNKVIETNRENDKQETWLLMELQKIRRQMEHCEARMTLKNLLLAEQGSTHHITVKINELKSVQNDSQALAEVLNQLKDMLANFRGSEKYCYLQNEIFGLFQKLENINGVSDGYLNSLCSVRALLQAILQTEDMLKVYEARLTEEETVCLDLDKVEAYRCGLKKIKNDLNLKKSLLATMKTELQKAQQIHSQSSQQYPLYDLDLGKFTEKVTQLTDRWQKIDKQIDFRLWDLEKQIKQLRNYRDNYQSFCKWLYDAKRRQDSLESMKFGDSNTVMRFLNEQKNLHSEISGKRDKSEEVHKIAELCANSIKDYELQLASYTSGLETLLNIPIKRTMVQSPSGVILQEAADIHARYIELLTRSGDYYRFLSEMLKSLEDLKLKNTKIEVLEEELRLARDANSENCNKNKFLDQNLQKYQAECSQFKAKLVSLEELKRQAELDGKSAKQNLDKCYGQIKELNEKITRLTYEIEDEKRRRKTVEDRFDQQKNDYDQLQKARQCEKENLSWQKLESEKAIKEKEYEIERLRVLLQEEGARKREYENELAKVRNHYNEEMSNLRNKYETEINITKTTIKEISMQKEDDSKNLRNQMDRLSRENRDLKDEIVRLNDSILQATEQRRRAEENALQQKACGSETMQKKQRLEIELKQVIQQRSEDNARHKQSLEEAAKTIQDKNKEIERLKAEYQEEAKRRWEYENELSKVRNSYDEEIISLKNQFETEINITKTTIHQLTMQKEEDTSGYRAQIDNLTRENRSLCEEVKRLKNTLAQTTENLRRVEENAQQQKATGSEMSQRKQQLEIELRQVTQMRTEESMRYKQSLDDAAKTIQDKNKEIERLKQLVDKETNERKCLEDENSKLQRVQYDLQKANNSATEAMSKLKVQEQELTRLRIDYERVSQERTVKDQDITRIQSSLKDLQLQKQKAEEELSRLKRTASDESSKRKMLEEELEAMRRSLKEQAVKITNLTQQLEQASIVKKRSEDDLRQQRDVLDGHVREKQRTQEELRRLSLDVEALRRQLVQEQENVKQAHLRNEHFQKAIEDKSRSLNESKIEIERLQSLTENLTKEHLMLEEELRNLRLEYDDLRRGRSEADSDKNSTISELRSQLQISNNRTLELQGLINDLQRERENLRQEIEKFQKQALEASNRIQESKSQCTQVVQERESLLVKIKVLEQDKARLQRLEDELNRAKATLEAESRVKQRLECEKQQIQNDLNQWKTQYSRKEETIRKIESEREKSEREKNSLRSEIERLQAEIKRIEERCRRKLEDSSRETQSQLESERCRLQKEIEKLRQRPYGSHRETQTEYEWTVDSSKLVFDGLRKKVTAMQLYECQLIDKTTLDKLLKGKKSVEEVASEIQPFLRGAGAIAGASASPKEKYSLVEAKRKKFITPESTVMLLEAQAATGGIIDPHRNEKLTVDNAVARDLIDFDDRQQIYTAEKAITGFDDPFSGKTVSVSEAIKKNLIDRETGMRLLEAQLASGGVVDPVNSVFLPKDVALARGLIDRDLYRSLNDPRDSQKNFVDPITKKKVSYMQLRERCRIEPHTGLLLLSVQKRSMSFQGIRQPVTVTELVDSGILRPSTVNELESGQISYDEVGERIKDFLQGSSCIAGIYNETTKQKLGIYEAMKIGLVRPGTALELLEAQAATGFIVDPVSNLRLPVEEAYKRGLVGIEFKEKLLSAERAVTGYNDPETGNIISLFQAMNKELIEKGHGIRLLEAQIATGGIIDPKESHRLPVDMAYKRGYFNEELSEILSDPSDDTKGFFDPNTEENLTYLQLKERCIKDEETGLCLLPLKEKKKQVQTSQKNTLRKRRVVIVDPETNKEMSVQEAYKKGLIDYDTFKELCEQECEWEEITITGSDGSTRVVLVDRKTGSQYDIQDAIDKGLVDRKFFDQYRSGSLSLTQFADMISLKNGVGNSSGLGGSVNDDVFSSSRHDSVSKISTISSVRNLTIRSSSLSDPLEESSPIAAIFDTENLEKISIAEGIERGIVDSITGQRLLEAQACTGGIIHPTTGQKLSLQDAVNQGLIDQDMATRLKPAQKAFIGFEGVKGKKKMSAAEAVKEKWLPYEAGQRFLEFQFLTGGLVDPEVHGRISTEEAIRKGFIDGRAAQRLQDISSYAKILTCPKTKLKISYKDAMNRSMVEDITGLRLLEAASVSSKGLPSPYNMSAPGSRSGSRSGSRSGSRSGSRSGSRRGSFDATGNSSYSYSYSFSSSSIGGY

Results are given in words; binding and its absence hold for the method and conditions named. In cells and extracts the contact can be indirect. Some results given as binding are weak or reduced against the parent protein; the word gives no strength.

The target of test [1] is desmoplakin (mouse (endogenous in HL-1)) (UniProt E9Q557). The test is described as follows: co-IP; DP immunoprecipitated from HL-1 lysates (RIPA lysis buffer); 1 ug antibody to 1.5 mg lysate overnight at 4°C, Protein G Dynabeads, washes incl. 2 M urea buffer; immunoblots for EGFR, DSG2, PKP2, PG; cells treated with vehicle, erlotinib or PP2 (no significant changes). A general note: Immunoblotting shows a protein as a band on a membrane.

The target of test [2] is T1, desmoglein 2 (mouse (endogenous in HL-1)) (UniProt O55111).
T1 sequence: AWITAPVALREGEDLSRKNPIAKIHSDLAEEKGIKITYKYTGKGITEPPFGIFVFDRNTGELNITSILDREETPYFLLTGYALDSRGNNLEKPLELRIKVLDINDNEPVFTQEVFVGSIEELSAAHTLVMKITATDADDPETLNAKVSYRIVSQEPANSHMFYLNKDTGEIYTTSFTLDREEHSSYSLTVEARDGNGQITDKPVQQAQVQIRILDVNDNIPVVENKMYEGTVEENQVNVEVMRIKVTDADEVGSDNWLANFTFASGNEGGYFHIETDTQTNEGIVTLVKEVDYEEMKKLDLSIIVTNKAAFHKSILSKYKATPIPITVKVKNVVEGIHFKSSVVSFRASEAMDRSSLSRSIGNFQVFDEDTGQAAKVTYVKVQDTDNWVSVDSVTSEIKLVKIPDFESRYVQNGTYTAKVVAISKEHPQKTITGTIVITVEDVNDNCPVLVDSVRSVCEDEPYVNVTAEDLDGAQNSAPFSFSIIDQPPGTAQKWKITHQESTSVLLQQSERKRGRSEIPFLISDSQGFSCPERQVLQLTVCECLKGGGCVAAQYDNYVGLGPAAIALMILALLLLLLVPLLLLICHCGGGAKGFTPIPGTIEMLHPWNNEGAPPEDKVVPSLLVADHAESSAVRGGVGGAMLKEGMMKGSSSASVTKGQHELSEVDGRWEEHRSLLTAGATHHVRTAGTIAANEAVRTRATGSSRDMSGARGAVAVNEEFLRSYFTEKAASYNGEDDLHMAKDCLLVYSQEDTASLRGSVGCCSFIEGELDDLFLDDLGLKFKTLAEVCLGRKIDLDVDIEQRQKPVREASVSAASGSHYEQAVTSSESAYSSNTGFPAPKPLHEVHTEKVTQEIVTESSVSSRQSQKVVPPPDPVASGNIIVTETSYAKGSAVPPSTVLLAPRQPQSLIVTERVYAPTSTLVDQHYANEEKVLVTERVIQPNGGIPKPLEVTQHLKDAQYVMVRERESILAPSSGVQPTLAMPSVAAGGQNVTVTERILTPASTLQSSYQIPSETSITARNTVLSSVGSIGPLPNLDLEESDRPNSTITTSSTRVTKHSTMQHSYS
The experiment in a line: co-IP; DSG2 immunoprecipitated from HL-1 lysates (RIPA lysis buffer); 1 ug antibody to 1.5 mg lysate overnight at 4°C, Protein G Dynabeads, washes incl. 2 M urea buffer; immunoblots for EGFR, PG, DP, PKP2; cells with or without erlotinib (complex not altered).

B1: desmoglein 2 (protein, UniProt O55111 55-1122)
chain: T1 sequence
With B1, the binding result in test [1] was “binds”.

B2: plakophilin 2 (protein, UniProt Q9CQ73 1-795)
chain: MAVPGSLAECGYIRTVLGQQILGHLDSSSLALPSEARLRLAGSSGRGDPAARSQRIQEQVQQTLARRGRSSAVSGNLHRTSSVPEYVYKLHVVENDFVGRQSPVTRDYDMLKAGMTATYGSRWGRAAAQYSSQKSVEERSWRQPLRRLEISPDSSPERAHYGHSEYQYAWRSHVVPGGRLTLPRYARSEILGLRQAGTARRPPGCGSFSDAVFDNGPLKPTMPTHPPGTSHSAGSLLEETTVRVSQARLQSTQSRTARSSWPRSSVRSSLREPGRMLTTAGQAAVGSGDAHGDRSVFADAQLGNADIEMTLERAVNMLDADHVPVSKISAAATFIQHESFQKSEARKRVNQLRGIPKLLQLLKLQNEDVQRAACGALRNLVFEDNDNKLEVAELNGVPRLLQVLKQTRDLETKKQITGLLWNLSSSDKLKHLMITEALLTLTESVIIPFSGWPEGDYPKANGLLDFDIFYNVTGCLRNMSSAGPDGRKMMRRCDGLIDSLVHYVRGTIADYQPDDKATENCVCILHNLSYQLEAELPEKYSQSIYMQNRNIQTNSNKSIGCFGSRSRKLKEQYQDLQMPEERSNPHGIEWLWHSIVIRMYLSLIAKSTRNYTQEASLGALQNLTAGGGPIPTLVARMVVQKENGLQHTRKMLHVGDPSVKKTAVSLLRNLSRNLSLQNEIAKETLPDLVSIIPDTVPSTDLLIETTASACYTLNNLMQNSYQNARDLLNTGGLQKIMTISIGEGYAPNKASKAASVLLYSLWAHTELHHAYKKAQFKKTDFVNSRTAKAYHSLKD
As for B2, the binding entry in test [2] and in test [1] was “binds” in each case.
